# Results of single-concentration screens

The chains behind the UniProt entries cited, without tags or fusion partners. Residues count along the entry.
UniProt A4I591, 1-473: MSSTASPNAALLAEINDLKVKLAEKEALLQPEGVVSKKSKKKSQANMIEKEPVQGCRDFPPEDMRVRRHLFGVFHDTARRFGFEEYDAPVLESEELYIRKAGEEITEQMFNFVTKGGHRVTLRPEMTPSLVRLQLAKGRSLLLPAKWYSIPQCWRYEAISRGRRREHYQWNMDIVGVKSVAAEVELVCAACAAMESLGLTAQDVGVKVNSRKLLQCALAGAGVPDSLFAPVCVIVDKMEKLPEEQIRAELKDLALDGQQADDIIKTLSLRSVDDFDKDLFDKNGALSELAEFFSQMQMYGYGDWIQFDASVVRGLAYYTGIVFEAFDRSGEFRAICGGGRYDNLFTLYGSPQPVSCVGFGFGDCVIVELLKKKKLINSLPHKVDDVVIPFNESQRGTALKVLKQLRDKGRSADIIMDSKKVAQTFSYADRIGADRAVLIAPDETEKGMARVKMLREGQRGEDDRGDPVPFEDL
UniProt P9WNZ1, whole entry: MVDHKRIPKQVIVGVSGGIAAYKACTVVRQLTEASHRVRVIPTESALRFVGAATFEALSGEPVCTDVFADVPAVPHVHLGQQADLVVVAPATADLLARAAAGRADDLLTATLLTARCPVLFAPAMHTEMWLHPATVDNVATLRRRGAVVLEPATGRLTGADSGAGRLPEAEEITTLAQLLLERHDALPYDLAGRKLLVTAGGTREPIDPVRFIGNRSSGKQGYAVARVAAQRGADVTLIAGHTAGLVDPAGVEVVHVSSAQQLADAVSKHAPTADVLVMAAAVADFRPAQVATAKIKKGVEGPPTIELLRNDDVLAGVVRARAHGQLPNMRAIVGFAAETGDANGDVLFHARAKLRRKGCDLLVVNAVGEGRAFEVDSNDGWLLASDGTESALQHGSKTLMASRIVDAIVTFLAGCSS
UniProt P9WFT3, whole entry: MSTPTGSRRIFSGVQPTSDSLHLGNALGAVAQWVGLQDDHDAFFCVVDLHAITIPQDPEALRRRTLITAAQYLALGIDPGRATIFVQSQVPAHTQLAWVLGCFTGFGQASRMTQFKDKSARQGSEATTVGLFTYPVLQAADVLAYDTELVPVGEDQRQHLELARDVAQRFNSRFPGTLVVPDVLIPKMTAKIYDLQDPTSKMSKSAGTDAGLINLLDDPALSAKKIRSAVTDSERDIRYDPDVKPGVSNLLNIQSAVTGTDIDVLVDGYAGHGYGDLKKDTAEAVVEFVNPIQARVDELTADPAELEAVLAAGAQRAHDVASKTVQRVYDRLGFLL

Source: ChEMBL document CHEMBL3988442, “University of Dundee, Small-Polar-MMV Screening Library” (2021).

LiHisRS: 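Enzyme assay of histidyl-tRNA synthetase; the read-out is not stated. Target: Histidine-tRNA ligase, Leishmania infantum (UniProt A4I591). Compounds at 30 µM. Higher reads as stronger inhibition (inferred: compounds with an IC50 in retests scored well above the rest). The assay is labelled LdHisRS but filed under L. infantum. About 69,000 compounds were tested under these conditions; 0.6% (about 410) showed 50% or more at least once.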
CoaBC: 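Coenzyme A biosynthesis protein CoaBC, Mycobacterium tuberculosis (UniProt P9WNZ1). Enzyme assay of CoaBC with a phosphate dye (Biomol Green) read at 650 nm. Concentration: 30 µM. Higher reads as stronger inhibition, judged from the few compounds that gave an IC50. Most strong results did not repeat in a second test. Of about 67,000 compounds tested this way, about 40 (0.06%) reached 50% or more in at least one test.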
MtTrpRS: 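Tryptophan-tRNA ligase, Mycobacterium tuberculosis (UniProt P9WFT3). Enzyme assay of tryptophanyl-tRNA synthetase; the read-out is not stated. Tested at 10 µM. Direction is not recorded; retested compounds ran higher, which suggests that high means inhibition. Size under these conditions: about 65,000 compounds, about 64 of them at 50% or above in at least one test.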

Values are the deposited “Percent Effect”, in %. The controls that fix the scale are not given in the record; negative values are as filed. Compounds were drawn at random from those tested, without regard to their results.

CS(=O)(=O)c1cccc(C(N)c2ccc(F)c(F)c2)c1 (stereo not drawn) read LiHisRS: 14.86%; CoaBC: 5.606%; MtTrpRS: 2.787%.
Cc1cc(C)c(C(=O)NC2CCCc3nc(N(C)C)ncc32)cc1C (stereo not drawn) read LiHisRS: 12.9%; CoaBC: 8.364%; MtTrpRS: 2.02%.
Cc1ccsc1C(=O)N1Cc2ncn(C)c2C(COCC2CC2)C1 (stereo not drawn) read LiHisRS: 15.04%; CoaBC: -8.211%; MtTrpRS: 2.629%.
Cc1ccc(C(=O)N(C)Cc2ccc3c(c2)OCCO3)c(=O)[nH]1 read LiHisRS: 1.786%; CoaBC: -13.05%; MtTrpRS: 12.87%.
CN(C)C(CNCc1nc(-c2ccsc2)no1)c1cccs1 (stereo not drawn) read LiHisRS: -57.53%; CoaBC: 1.86%; MtTrpRS: 1.3%.
Cc1cccc2[nH]c(C3CCN(C(=O)c4c[nH]c(=O)[nH]c4=O)CC3)nc12 read LiHisRS: 15.2%; CoaBC: -1.086%; MtTrpRS: 0.2174%.
CCC(CN1CCOCC1)NC(=O)Cc1c(C)[nH]c2cc(C)cc(C)c12 (stereo not drawn) read LiHisRS: 4.828%; CoaBC: 2.596%; MtTrpRS: -2.51%.
N#Cc1cccc(N2CCC(CO)(CCCc3ccccc3)CC2)n1 read LiHisRS: 11.11%; CoaBC: 2.92%; MtTrpRS: 1.816%.
Cc1ccoc1C(=O)N1CCn2nnc(COc3cccnc3)c2C1 read LiHisRS: 13.76%; CoaBC: -4.665%; MtTrpRS: 3.438%.
O=C(Nc1ccccc1)C1CN(Cc2ccco2)CC12CCOCC2 (stereo not drawn) read LiHisRS: 26.03%; CoaBC: -19.74%; MtTrpRS: -2.329%.
Cc1ccc(=O)n(CC2(O)CCN(Cc3c(F)cccc3F)CC2)n1 read LiHisRS: 7.292%; CoaBC: 3.186%.
Cc1cnn(C2CCCN(C(=O)c3ccc(N4CCCC4)nn3)C2)c1 (stereo not drawn) read LiHisRS: 6.14%; CoaBC: 2.738%; MtTrpRS: -1.002%.
Cc1cc(C)n(C2CCCN(C(=O)c3c(C)noc3C)C2)n1 (stereo not drawn) read LiHisRS: -1.653%; CoaBC: -7.559%; MtTrpRS: -3.173%.
CS(=O)(=O)N[C@@H]1CN(Cc2ccncc2)C[C@@H]2CCCO[C@@H]21 read LiHisRS: 11.43%; CoaBC: 4.235%; MtTrpRS: 3.417%.
Cc1ccc(SC2CCCC2)c(C(=O)NCCc2n[nH]c(=O)[nH]2)c1 read LiHisRS: 18.42%; CoaBC: -0.7576%; MtTrpRS: -0.2101%.
CC(=O)N[C@@H]1C[C@H](Cc2ccccc2)O[C@H](c2ccc(C(=O)O)cc2)C1 read LiHisRS: 3.125%; CoaBC: 5.398%; MtTrpRS: -4.446%.
CCC1CCCCN1Cc1ncc(-c2ccc(OC)cc2)o1 (stereo not drawn) read LiHisRS: 9.524%; CoaBC: -6.807%; MtTrpRS: 0.7498%.
O=C(CN1C=Nc2ccccc2S1(=O)=O)NCc1ccccc1F read LiHisRS: 7.895%; CoaBC: 0.3911%; MtTrpRS: -3.595%.
NCC1(c2cccc(C(F)(F)F)c2)CCC1 read LiHisRS: -3.03%; CoaBC: 3.831%; MtTrpRS: -5.651%.
CCOC(=O)C1CCN(C(=O)CN2CCCC2c2ccccc2C)CC1 (stereo not drawn) read LiHisRS: 14.29%; CoaBC: 10.44%; MtTrpRS: -4.283%.
COC[C@@H]1CCC[C@@]12CN(C(=O)N(C)C)CCO2 read LiHisRS: -11.88%; CoaBC: -1.609%.
Cc1cc(N(C)Cc2ncc[nH]2)nc(-c2cccnc2)n1 read LiHisRS: 12.9%; CoaBC: 4.716%; MtTrpRS: -5.693%.
O=C(c1ccncc1F)N1Cc2nc(COCC3CC3)oc2C1 read LiHisRS: 26%; CoaBC: 3.202%; MtTrpRS: -5.969%.
Cn1ccc(C(=O)N2C[C@@H]3CCN(c4cnccn4)C[C@@H]3C2)n1 read LiHisRS: 18%; CoaBC: 5.665%; MtTrpRS: -3.516%.
Cc1csc(CN2CC[C@H]3C[C@H](c4noc(C)n4)O[C@@H]3C2)n1 read LiHisRS: 6.452%; CoaBC: 2.836%; MtTrpRS: -3.604%.
CN(C)C(=O)CN1CCC2(C1)CN(CC1CCOCC1)C2 read LiHisRS: -47.37%; CoaBC: -12.47%; MtTrpRS: -2.607%.
CC(C(=O)NCC(C)(C)c1ccc2c(c1)OCCO2)n1cncn1 (stereo not drawn) read LiHisRS: 3.529%; CoaBC: 4.207%; MtTrpRS: 0.9084%.
O=C(NC[C@H]1CCCN1)c1cc(COc2cccc(C(F)(F)F)c2)[nH]n1 read LiHisRS: 12.12%; CoaBC: -28.99%; MtTrpRS: 1.016%.